# Data: the supplement of paper PMC12067093, “Discovery and optimisation of a covalent ligand for TRIM25 and its application to targeted protein ubiquitination” (Chemical Science, 2025)
# The chains behind the UniProt entries cited, without tags or fusion partners. Where a name states a change or a piece, a line headed by the entry shows the natural chain unless it says otherwise.
# UniProt Q6PI48: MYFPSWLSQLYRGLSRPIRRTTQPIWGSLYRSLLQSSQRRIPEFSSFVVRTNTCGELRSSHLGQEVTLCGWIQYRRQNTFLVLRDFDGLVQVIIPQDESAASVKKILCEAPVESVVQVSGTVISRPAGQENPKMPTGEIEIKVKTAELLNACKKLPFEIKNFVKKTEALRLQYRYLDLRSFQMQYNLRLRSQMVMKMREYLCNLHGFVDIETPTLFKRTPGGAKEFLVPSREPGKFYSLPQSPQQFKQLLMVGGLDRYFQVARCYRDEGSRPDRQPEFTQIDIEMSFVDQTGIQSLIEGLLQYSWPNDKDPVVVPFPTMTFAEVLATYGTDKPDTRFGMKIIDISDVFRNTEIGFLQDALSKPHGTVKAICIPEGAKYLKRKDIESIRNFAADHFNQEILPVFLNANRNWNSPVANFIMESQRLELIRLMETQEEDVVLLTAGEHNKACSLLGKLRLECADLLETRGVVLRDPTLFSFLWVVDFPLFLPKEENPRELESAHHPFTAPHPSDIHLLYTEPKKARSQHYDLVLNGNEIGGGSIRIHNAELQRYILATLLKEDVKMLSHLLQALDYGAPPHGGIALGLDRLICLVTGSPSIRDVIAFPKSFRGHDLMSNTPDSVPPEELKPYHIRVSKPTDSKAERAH
# UniProt Q96C86: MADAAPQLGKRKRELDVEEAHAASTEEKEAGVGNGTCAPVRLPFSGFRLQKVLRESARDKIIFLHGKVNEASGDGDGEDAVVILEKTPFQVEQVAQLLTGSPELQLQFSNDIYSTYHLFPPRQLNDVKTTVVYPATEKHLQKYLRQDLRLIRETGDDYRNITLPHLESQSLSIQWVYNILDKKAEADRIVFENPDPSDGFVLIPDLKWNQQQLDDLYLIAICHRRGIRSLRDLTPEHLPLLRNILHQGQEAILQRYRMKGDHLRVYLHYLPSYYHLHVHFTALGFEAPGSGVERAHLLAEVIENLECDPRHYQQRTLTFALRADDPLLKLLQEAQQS
# UniProt Q13620, whole entry, looked up: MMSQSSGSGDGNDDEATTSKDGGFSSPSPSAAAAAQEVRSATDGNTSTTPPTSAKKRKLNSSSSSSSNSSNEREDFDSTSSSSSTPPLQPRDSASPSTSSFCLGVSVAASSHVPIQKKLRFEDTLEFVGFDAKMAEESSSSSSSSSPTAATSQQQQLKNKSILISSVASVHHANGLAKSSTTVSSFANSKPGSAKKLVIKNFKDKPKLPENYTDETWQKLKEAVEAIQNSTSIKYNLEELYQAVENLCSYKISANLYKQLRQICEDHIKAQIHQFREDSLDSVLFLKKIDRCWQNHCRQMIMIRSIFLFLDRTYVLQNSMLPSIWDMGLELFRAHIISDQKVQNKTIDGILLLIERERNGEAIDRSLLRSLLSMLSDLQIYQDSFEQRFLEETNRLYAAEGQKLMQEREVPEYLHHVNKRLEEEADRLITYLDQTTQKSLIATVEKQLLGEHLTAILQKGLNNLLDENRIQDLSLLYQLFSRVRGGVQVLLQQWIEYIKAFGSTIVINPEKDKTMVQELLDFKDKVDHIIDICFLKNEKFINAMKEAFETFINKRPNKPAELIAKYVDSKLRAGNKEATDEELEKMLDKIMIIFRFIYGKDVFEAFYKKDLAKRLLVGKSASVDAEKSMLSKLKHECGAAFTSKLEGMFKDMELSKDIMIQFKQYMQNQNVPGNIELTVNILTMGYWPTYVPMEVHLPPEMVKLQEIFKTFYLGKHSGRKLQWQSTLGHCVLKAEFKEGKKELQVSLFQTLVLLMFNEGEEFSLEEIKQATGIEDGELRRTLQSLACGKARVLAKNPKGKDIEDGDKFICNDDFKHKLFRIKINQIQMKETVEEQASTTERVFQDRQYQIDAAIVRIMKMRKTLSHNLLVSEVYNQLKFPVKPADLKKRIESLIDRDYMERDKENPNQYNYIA
# UniProt Q14203, whole entry, looked up: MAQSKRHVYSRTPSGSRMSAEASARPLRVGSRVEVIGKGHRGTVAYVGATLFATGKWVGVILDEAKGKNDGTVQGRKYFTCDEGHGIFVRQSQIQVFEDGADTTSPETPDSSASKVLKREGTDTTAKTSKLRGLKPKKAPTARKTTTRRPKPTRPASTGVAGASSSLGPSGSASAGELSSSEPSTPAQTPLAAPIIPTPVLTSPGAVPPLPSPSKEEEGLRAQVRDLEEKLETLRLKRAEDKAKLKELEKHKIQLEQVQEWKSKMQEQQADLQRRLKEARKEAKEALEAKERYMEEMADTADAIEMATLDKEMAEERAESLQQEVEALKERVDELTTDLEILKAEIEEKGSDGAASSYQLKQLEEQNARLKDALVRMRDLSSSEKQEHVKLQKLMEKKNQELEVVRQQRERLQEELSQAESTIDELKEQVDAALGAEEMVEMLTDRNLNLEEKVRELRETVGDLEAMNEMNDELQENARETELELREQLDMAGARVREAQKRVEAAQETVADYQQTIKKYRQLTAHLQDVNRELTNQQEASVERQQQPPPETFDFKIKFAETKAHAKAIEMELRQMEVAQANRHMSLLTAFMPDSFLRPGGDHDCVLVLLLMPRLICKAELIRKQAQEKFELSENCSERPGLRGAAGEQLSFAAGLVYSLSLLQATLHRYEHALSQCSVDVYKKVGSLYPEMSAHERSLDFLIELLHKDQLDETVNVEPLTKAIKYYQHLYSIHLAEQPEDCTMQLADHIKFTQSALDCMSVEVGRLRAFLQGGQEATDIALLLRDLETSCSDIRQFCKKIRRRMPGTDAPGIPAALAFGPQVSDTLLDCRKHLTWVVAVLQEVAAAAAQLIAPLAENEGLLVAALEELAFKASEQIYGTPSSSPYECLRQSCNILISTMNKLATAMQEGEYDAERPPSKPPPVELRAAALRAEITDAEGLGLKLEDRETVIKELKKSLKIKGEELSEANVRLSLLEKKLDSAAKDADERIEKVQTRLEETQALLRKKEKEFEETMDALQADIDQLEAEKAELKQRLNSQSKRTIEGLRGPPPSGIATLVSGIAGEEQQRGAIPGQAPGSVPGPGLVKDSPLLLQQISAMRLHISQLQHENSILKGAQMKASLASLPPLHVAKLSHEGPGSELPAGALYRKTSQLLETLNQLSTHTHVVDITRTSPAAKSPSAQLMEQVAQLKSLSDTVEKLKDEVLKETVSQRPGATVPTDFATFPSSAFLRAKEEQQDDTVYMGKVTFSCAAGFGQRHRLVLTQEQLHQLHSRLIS
# UniProt P27707: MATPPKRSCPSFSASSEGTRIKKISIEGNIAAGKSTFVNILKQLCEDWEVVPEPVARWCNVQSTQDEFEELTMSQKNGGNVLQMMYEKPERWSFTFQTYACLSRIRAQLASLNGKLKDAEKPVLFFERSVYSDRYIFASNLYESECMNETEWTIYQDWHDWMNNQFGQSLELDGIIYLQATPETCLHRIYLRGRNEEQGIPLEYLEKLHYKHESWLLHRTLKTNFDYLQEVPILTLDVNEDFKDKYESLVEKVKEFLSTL
# UniProt Q9NTM9: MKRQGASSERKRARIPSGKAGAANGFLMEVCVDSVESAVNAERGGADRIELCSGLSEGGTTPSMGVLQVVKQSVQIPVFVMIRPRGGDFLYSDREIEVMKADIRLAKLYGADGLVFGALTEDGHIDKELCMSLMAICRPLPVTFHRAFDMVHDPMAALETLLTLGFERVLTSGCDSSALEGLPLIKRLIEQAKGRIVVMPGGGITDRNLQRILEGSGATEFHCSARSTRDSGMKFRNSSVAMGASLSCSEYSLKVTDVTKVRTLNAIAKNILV
# UniProt Q8TB03: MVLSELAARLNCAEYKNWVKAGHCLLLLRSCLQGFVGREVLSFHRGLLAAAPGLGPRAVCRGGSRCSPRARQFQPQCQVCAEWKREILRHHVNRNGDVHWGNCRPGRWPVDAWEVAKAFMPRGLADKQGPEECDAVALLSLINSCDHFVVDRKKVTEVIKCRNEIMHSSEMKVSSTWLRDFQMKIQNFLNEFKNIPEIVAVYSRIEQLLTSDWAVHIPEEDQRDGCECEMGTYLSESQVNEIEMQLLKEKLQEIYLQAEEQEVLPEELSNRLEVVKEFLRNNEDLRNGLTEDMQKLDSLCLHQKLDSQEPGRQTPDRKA
# UniProt P00387: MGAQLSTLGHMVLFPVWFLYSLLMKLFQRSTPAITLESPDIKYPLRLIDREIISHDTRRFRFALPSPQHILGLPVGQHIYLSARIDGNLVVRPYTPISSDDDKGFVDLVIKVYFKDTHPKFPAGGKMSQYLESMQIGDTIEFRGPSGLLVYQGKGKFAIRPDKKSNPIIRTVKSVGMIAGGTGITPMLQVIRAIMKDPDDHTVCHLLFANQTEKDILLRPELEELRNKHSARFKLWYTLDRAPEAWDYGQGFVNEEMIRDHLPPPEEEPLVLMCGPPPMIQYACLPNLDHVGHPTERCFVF
# UniProt Q9UJW0, whole entry, looked up: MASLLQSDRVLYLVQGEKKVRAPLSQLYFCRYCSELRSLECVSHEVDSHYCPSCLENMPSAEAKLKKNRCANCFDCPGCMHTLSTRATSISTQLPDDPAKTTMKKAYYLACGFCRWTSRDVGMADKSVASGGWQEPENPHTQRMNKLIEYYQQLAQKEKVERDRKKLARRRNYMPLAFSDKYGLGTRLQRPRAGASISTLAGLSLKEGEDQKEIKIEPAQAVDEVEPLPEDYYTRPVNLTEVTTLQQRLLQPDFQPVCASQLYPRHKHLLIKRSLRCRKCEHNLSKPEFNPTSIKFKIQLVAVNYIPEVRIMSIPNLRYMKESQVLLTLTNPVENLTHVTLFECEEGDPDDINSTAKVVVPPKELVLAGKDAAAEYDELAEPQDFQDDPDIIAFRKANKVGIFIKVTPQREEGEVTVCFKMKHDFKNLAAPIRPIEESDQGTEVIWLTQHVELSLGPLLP
# UniProt P09668: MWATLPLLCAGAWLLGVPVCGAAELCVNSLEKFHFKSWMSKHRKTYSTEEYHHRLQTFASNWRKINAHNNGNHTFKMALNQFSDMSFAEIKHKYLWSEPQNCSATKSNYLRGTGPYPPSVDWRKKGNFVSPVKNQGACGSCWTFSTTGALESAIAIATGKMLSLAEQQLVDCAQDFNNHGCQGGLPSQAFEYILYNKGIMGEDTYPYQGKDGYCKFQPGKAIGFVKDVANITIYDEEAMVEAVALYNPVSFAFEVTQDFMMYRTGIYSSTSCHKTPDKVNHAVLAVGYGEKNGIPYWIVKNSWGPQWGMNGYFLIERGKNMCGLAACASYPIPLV
# UniProt Q14118: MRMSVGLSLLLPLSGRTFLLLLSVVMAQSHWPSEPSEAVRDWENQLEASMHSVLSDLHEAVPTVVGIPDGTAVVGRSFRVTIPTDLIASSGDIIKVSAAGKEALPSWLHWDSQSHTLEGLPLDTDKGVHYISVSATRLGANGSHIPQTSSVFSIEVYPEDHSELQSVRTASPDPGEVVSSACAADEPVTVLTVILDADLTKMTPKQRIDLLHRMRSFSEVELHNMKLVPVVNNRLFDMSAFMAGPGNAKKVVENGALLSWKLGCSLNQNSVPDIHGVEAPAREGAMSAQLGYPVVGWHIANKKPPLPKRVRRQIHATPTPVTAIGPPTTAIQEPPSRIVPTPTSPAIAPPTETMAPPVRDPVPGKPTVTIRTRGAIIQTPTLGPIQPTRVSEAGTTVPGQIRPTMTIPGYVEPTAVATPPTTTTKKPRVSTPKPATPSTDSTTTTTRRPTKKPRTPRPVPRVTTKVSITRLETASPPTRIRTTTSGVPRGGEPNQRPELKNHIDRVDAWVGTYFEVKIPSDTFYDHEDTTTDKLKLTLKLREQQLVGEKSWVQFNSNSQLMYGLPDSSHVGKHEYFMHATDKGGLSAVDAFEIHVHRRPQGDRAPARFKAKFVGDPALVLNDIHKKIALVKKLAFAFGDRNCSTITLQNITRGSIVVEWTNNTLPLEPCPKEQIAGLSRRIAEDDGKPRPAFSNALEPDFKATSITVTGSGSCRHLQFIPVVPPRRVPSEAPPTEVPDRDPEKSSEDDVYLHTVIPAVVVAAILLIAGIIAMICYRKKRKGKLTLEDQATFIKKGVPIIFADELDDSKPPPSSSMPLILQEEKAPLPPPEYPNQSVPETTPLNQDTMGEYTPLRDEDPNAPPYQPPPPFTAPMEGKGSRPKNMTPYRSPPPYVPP
# UniProt P32321: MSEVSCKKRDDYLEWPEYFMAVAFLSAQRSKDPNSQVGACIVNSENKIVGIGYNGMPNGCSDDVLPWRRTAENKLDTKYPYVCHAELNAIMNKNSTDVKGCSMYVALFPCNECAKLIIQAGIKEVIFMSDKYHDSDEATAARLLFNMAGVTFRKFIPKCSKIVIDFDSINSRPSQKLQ
# This is one part of the list.
# Compound: CC1Cc2ccccc2N1C(=O)C1CCCN(C1)C(=O)CCl (mixture of isomers) [TRIM25 ligand 11 (diastereomer mixture)]
# Test: probe-labelled cysteine peptide fold change vs DMSO (competition) (log2 fold change); higher = less target engagement (more negative = stronger competition)
# Conditions: THP-1, incubation time: 4 h
# 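Further: competitive chemoproteomic profiling in live THP-1 cells with an iodoacetamide desthiobiotin (IA-DTB) probe, comparing probe-labelled peptide intensities in compound-treated cells against DMSO-treated controls.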
Target,probe-labelled cysteine peptide fold change (10 µM),probe-labelled cysteine peptide fold change (50 µM)
DARS2_Q6PI48_371_AICIPEGAK (UniProt Q6PI48),-0.143,-0.0762
DCPS_Q96C86_307_AHLLAEVIENLECDPR (UniProt Q96C86),0.149,-0.0437
DAZAP1_Q96EP5_63_DPNCVGTVLASRPHTLDGR (UniProt Q96EP5),0.0236,0.116
CUL4B_Q13620_730_KLQWQSTLGHCVLK (UniProt Q13620),-0.0966,0.0454
DCTN1_Q14203_677_YEHALSQCSVDVYKK (UniProt Q14203),-0.0153,0.149
DCK_P27707_9_SCPSFSASSEGTR (UniProt P27707),0.124,-0.0554
CUTC_Q9NTM9_223_ILEGSGATEFHCSAR (UniProt Q9NTM9),0.176,0.0418
CXorf38_Q8TB03_133+145_QGPEECDAVALLSLINSCDHFVVDRK (UniProt Q8TB03),0.127,0.294
DCTN1_Q14203_742_YYQHLYSIHLAEQPEDCTMQLADHIK (UniProt Q14203),0.108,-0.355
CYB5R3_P00387_204_DPDDHTVCHLLFANQTEK (UniProt P00387),-0.00817,-0.00425
DCTN4_Q9UJW0_280_KCEHNLSKPEFNPTSIK (UniProt Q9UJW0),0.0733,0.103
CTSH_P09668_272_TGIYSSTSCHK (UniProt P09668),0.223,-0.279
DAG1_Q14118_713_ATSITVTGSGSCR (UniProt Q14118),-0.0908,-0.0621
DCTD_P32321_40_DPNSQVGACIVNSENK (UniProt P32321),0.148,0.127
